# Test results published in US9790469B2, “Established human brown adipocyte line and method for differentiation from an hMADS cell line” (CENTRE NATIONAL DE LA RECHERCHE SCIENTIFIQUE (CNRS), priority 2008, dated 2017).
# For at least one compound, name, drawing or mass did not settle the structure.
# System: hMADS-2 cells
# Assay: Adipocytic differentiation of hMADS-2 cells (Oil Red O lipid staining, GPDH activity, PPARγ mRNA)
# Type: cell-based, human
# Source text: Expression of the genes of interest was normalized compared with the one of the TBP gene and was quantified using the ΔCt comparative method. The sequences of oligonucleotide primers, obtained using the Primer Express Software (Perkin Elmer Life Sciences), are described in Table 1 below.
structure (smiles),measurement,setting,value
CN(CCOc1ccc(CC2SC(=O)NC2=O)cc1)c1ccccn1 (centres unmarked) [rosiglitazone],expression of GPDH and PPARγ genes,additional treatment of one week (after days 3 to 9),does not change the expression of GPDH and PPARγ genes
same,lipid accumulation and expression of GPDH and PPARγ genes,"treatment for 6 days, between days 3 and 9, increasing concentrations",leads to lipid accumulation and to the expression of GPDH and PPARγ genes
